{
  "source": "paper PMC3947653",
  "about": "(Peptides, 2013)",
  "origin": "cited, not measured here",
  "system": "normal volunteers",
  "settings": "cited from earlier work",
  "data": [
    {"smiles": "NS(=O)(=O)c1cc(C(=O)O)c(NCc2ccco2)cc1Cl", "note": "[furosemide]", "values": [
      {"measurement": "tolerability of alkaline formulation, subcutaneous route", "result": "tolerated well"}
    ]}
  ]
}
